No constants are given. Whether binding was seen depends on the method and setting. In cells and extracts the contact can be indirect. Some results given as binding are weak or reduced against the parent protein; the word gives no strength.

By UniProt entry, the sequences of proteins in these tests, tags left out. Residues count along the entry.
UniProt Q62432, residues 2-467: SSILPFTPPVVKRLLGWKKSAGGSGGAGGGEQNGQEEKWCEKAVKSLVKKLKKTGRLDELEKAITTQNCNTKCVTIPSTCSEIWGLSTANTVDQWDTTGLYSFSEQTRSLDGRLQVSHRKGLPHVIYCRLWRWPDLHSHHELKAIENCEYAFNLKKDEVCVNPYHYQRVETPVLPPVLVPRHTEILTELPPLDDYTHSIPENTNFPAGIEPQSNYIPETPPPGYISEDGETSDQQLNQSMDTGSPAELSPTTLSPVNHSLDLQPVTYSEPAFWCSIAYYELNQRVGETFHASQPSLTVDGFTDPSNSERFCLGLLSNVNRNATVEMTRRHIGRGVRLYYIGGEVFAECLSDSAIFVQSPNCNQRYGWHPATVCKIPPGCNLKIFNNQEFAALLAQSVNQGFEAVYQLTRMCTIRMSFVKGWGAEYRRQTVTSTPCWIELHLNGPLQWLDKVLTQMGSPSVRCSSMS

The assay has as its target T1, TGF-β type I receptor (in mouse embryonic fibroblasts) (mouse) (UniProt Q64729).
T1 sequence (looked up): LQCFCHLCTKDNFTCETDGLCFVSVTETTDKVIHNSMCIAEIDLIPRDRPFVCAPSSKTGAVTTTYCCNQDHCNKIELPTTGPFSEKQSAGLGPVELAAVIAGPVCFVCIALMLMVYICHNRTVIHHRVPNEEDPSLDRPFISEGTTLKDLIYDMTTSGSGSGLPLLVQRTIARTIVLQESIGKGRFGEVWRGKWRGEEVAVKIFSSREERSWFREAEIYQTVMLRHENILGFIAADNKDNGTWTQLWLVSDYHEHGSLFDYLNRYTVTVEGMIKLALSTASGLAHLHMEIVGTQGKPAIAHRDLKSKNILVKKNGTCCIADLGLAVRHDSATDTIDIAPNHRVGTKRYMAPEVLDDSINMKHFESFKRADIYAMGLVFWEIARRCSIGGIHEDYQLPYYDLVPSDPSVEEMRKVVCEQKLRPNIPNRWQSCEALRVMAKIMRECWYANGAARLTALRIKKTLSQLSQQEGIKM
The experiment in a line: co-immunoprecipitation of type I receptor with Smad2 from MEFs (FIG. 2e).

Turning to “Smad2 (in mouse embryonic fibroblasts) (from UniProt Q62432 2-467)”, the binding entry was “binds”.
